Assay results: the supplement of paper PMC8728848
Some of the results follow.

How the values were obtained:
Test in all cases: glycan array binding signal (z-score within array); higher = stronger binding
Details in all cases: glycan notation: IUPAC condensed, linker removed
[1] = molecular target: Neu5Ac(a2-3)Gal(b1-4)GlcNAc(b1-3)Gal(b1-4)GlcNAc(b1-3)Gal(b1-4)GlcNAc
Method in brief: (§1)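 Glycan array binding is given as a within-array Z-score, which can be read as non-binding when negative. The arrays, 3228 of them, came from the Consortium for Functional Glycomics database and were retained only where the protein sequence was available. Z-scores were averaged across arrays of the same protein sequence at different concentrations or buffers and across linkers.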

[2] = molecular target: Neu5Ac(a2-3)Gal(b1-4)GlcNAc(b1-3)Gal(b1-4)GlcNAc(b1-3)Gal(b1-4)GlcNAc(b1-2)Man(a1-3)[Neu5Ac(a2-3)Gal(b1-4)GlcNAc(b1-3)Gal(b1-4)GlcNAc(b1-3)Gal(b1-4)GlcNAc(b1-2)Man(a1-6)]GalNAc
Method in brief: as §1

[3] = molecular target: Neu5Ac(a2-3)Gal(b1-4)GlcNAc(b1-3)Gal(b1-4)GlcNAc(b1-3)GalNAc
Method in brief: as §1

[4] = molecular target: Neu5Ac(a2-3)Gal(b1-4)GlcNAc(b1-3)Gal(b1-4)GlcNAc(b1-3)[Neu5Ac(a2-3)Gal(b1-4)GlcNAc(b1-3)Gal(b1-4)GlcNAc(b1-6)]GalNAc
Method in brief: as §1

[5] = molecular target: Neu5Ac(a2-3)Gal(b1-4)GlcNAc(b1-3)Gal(b1-4)GlcNAc(b1-6)[Gal(b1-3)]GalNAc
Method in brief: as §1

[6] = molecular target: Neu5Ac(a2-3)Gal(b1-4)GlcNAc(b1-3)Gal(b1-4)[Fuc(a1-3)]GlcNAc
Method in brief: as §1

[7] = molecular target: Neu5Ac(a2-3)Gal(b1-4)GlcNAc(b1-3)GalNAc
Method in brief: as §1

[8] = molecular target: Neu5Ac(a2-3)Gal(b1-4)GlcNAc(b1-3)[Neu5Ac(a2-3)Gal(b1-4)GlcNAc(b1-6)]GalNAc
Method in brief: as §1

[9] = molecular target: Neu5Ac(a2-3)Gal(b1-4)GlcNAc(b1-6)GalNAc
Method in brief: as §1

[10] = molecular target: Neu5Ac(a2-3)Gal(b1-4)GlcNAc(b1-6)[Gal(b1-3)]GalNAc
Method in brief: as §1

[11] = molecular target: Neu5Ac(a2-3)Gal(b1-4)GlcNAc(b1-6)[Neu5Ac(a2-3)Gal(b1-3)]GalNAc
Method in brief: as §1

[12] = molecular target: Neu5Ac(a2-3)Gal(b1-4)GlcNAc6S
Method in brief: as §1

[13] = molecular target: Neu5Ac(a2-3)Gal(b1-4)[Fuc(a1-3)]GlcNAc
Method in brief: as §1

[14] = molecular target: Neu5Ac(a2-3)Gal(b1-4)[Fuc(a1-3)]GlcNAc(b1-2)Man
Method in brief: as §1

[15] = molecular target: Neu5Ac(a2-3)Gal(b1-4)[Fuc(a1-3)]GlcNAc(b1-3)Gal
Method in brief: as §1

[16] = molecular target: Neu5Ac(a2-3)Gal(b1-4)[Fuc(a1-3)]GlcNAc(b1-3)Gal(b1-4)GlcNAc
Method in brief: as §1

[17] = molecular target: Neu5Ac(a2-3)Gal(b1-4)[Fuc(a1-3)]GlcNAc(b1-3)Gal(b1-4)[Fuc(a1-3)]GlcNAc(b1-3)Gal(b1-4)[Fuc(a1-3)]GlcNAc
Method in brief: as §1

[18] = molecular target: Neu5Ac(a2-3)Gal(b1-4)[Fuc(a1-3)]GlcNAc(b1-3)GalNAc
Method in brief: as §1

[19] = molecular target: Neu5Ac(a2-3)Gal(b1-4)[Fuc(a1-3)]GlcNAc(b1-6)[Gal(b1-3)]GalNAc
Method in brief: as §1

[20] = molecular target: Neu5Ac(a2-3)Gal(b1-4)[Fuc(a1-3)]GlcNAc(b1-6)[Neu5Ac(a2-3)Gal(b1-3)]GalNAc
Method in brief: as §1

[21] = molecular target: Neu5Ac(a2-3)Gal(b1-4)[Fuc(a1-3)]GlcNAc6S
Method in brief: as §1

[22] = molecular target: Neu5Ac(a2-3)Gal6S(b1-4)GlcNAc
Method in brief: as §1

[23] = molecular target: Neu5Ac(a2-3)Gal6S(b1-4)[Fuc(a1-3)]GlcNAc
Method in brief: as §1

Neu5Ac(a2-3)GalNAc = molecular target: Neu5Ac(a2-3)GalNAc
Method in brief: as §1

[24] = molecular target: Neu5Ac(a2-3)GalNAc(b1-4)GlcNAc
Method in brief: as §1

[25] = molecular target: Neu5Ac(a2-3)[GalNAc(b1-4)]Gal(b1-4)Glc
Method in brief: as §1

[26] = molecular target: Neu5Ac(a2-3)[GalNAc(b1-4)]Gal(b1-4)GlcNAc
Method in brief: as §1

[27] = molecular target: Neu5Ac(a2-3)[GalNAc(b1-4)]Gal(b1-4)GlcNAc(b1-3)GalNAc
Method in brief: as §1

[28] = molecular target: Neu5Ac(a2-3)[Neu5Ac(a2-6)]GalNAc
Method in brief: as §1

Neu5Ac(a2-6)Gal = molecular target: Neu5Ac(a2-6)Gal
Method in brief: as §1

[29] = molecular target: Neu5Ac(a2-6)Gal(b1-3)GlcNAc(b1-3)[Gal(b1-4)GlcNAc(b1-6)]Gal(b1-4)Glc
Method in brief: as §1

Neu5Ac(a2-6)Gal(b1-4)Glc = molecular target: Neu5Ac(a2-6)Gal(b1-4)Glc
Method in brief: as §1

[30] = molecular target: Neu5Ac(a2-6)Gal(b1-4)GlcNAc
Method in brief: as §1

[31] = molecular target: Neu5Ac(a2-6)Gal(b1-4)GlcNAc(b1-2)Man
Method in brief: as §1

[32] = molecular target: Neu5Ac(a2-6)Gal(b1-4)GlcNAc(b1-2)Man(a1-3)Man(b1-4)GlcNAc(b1-4)GlcNAc
Method in brief: as §1

[33] = molecular target: Neu5Ac(a2-6)Gal(b1-4)GlcNAc(b1-2)Man(a1-3)[Gal(b1-4)GlcNAc(b1-2)Man(a1-6)]Man(b1-4)GlcNAc(b1-4)GlcNAc
Method in brief: as §1

[34] = molecular target: Neu5Ac(a2-6)Gal(b1-4)GlcNAc(b1-2)Man(a1-3)[GlcNAc(b1-2)Man(a1-6)]Man(b1-4)GlcNAc(b1-4)GlcNAc
Method in brief: as §1

[35] = molecular target: Neu5Ac(a2-6)Gal(b1-4)GlcNAc(b1-2)Man(a1-3)[GlcNAc(b1-4)][Neu5Ac(a2-6)Gal(b1-4)GlcNAc(b1-2)Man(a1-6)]Man(b1-4)GlcNAc(b1-4)GlcNAc
Method in brief: as §1

B1: GS7807F-bth-514-18-514 (Bacteroides thetaiotaomicron) (protein)
chain: AGSCTGNFEEYNTNQFQIHEADPSTLMKSMIETIVNIQQNDSQMMDQMVGQLGGYLTCANVWSGTNFGTFNQSDAWNAGPWNTNFEKIYGNFFQIQEATNESGHYYAFARMIRAITMLRVADCYGPMPYSQVKKGNFYVAYDTEEQVYKNIMEDFASAANVLYNYYKDTNGNAPLASNDPVFSGNYANWARLANSMRLRVAIRISTAYPEMAKENAEAAASHEAGLIEANNDNAMMDCGSQTNPYQLAAVSWGDLRVNANIVDYMNGYGDPRMSKYFNHSTFTGHTQEYVGMRSGEDGFAKSDVAGYSIPAITGTSKLLVFCAAETAFLRAEGKLKNWSVGNKSAKEYYEEGIKLSMEQYGTTMPDNYLTNTEKPTVSHNNDPRGHAYTISNTVAVAWNDNNEEENLQRIITQKWIANYPLGLEAWAEYRRTGYPELYPCIDNLSPSGVDSKRGMRRLRFPYTEVQNNHSNYQQGVSYLKNGGPDNEATDLSWGKTN
glycan array binding signal (z-score) [1]: -0.869
glycan array binding signal (z-score) [2]: 2.04
glycan array binding signal (z-score) [3]: -0.893
glycan array binding signal (z-score) [4]: 1.28
glycan array binding signal (z-score) [5]: 0.268
glycan array binding signal (z-score) [6]: -0.859
glycan array binding signal (z-score) [7]: -0.877
glycan array binding signal (z-score) [8]: -0.897
glycan array binding signal (z-score) [9]: -0.442
glycan array binding signal (z-score) [10]: -0.094
glycan array binding signal (z-score) [11]: -0.898
glycan array binding signal (z-score) [12]: -0.841
glycan array binding signal (z-score) [13]: -0.894
glycan array binding signal (z-score) [14]: -0.684
glycan array binding signal (z-score) [15]: -0.924
glycan array binding signal (z-score) [16]: 0.143
glycan array binding signal (z-score) [17]: -0.88
glycan array binding signal (z-score) [18]: 1.62
glycan array binding signal (z-score) [19]: 1.96
glycan array binding signal (z-score) [20]: 0.621
glycan array binding signal (z-score) [21]: -0.84
glycan array binding signal (z-score) [22]: -0.774
glycan array binding signal (z-score) [23]: -0.904
glycan array binding signal (z-score) (Neu5Ac(a2-3)GalNAc): -0.712
glycan array binding signal (z-score) [24]: -0.897
glycan array binding signal (z-score) [25]: -0.409
glycan array binding signal (z-score) [26]: -0.73
glycan array binding signal (z-score) [27]: 1.09
glycan array binding signal (z-score) [28]: -0.781
glycan array binding signal (z-score) (Neu5Ac(a2-6)Gal): 0.08
glycan array binding signal (z-score) [29]: -0.294
glycan array binding signal (z-score) (Neu5Ac(a2-6)Gal(b1-4)Glc): 0.099
glycan array binding signal (z-score) [30]: -0.46
glycan array binding signal (z-score) [31]: 0.851
glycan array binding signal (z-score) [32]: -0.389
glycan array binding signal (z-score) [33]: 0.779
glycan array binding signal (z-score) [34]: 1.96
glycan array binding signal (z-score) [35]: -0.135
